Data reported in PMC7424762.
Results are given in words; binding and its absence hold for the method and conditions named. In cells and extracts the contact can be indirect. Binding can be weak; no strength is given.

T1: like AP180 (lap), the Drosophila PICALM orthologue (Drosophila (endogenous in adult fly heads)) (UniProt Q9VI75)
T1 sequence: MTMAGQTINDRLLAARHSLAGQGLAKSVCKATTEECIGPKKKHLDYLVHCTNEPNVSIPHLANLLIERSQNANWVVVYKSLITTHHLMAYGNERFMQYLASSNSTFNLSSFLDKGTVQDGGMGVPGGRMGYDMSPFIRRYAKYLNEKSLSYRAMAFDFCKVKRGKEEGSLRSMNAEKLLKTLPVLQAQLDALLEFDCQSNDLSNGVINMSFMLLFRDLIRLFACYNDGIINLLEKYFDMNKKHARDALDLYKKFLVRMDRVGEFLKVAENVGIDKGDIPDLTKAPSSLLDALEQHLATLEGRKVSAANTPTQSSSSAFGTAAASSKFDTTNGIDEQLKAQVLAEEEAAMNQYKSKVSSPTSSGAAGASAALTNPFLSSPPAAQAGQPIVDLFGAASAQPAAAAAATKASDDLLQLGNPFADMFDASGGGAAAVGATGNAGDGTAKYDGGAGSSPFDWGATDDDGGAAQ


Tests used:
[1] = target: T1, like AP180 (lap), the Drosophila PICALM orthologue (Drosophila (endogenous in adult fly heads)); assay: co-IP; lysate of 40 heads of wild-type (w^Dah) adult flies; lysis buffer 50 mM Tris pH 7.5, 150 mM NaCl, 0.5% NP-40; protein G Dynabeads cross-linked with anti-PICALM or anti-dVGlut antibody, overnight at 4°C; bead-only control; Western blot for the partner; run in duplicate
[2] = target: vesicular glutamate transporter (VGlut) (Drosophila (endogenous in adult fly heads)); assay: as above

| Molecule | binding [1] | binding [2] |
| --- | --- | --- |
| vesicular glutamate transporter (VGlut) | binds |  |
| like AP180 (lap), the Drosophila PICALM orthologue (protein, UniProt Q9VI75 1-468) MTMAGQTINDRLLAARHSLAGQGLAKSVCKATTEECIGPKKKHLDYLVHCTNEPNVSIPHLANLLIERSQNANWVVVYKSLITTHHLMAYGNERFMQYLASSNSTFNLSSFLDKGTVQDGGMGVPGGRMGYDMSPFIRRYAKYLNEKSLSYRAMAFDFCKVKRGKEEGSLRSMNAEKLLKTLPVLQAQLDALLEFDCQSNDLSNGVINMSFMLLFRDLIRLFACYNDGIINLLEKYFDMNKKHARDALDLYKKFLVRMDRVGEFLKVAENVGIDKGDIPDLTKAPSSLLDALEQHLATLEGRKVSAANTPTQSSSSAFGTAAASSKFDTTNGIDEQLKAQVLAEEEAAMNQYKSKVSSPTSSGAAGASAALTNPFLSSPPAAQAGQPIVDLFGAASAQPAAAAAATKASDDLLQLGNPFADMFDASGGGAAAVGATGNAGDGTAKYDGGAGSSPFDWGATDDDGGAAQ |  | binds |
